From patent US20100055033A1
These are yes or no findings as the source states them, for the method shown. Some entries that bind do so weakly or less than the wild type.

Amino acid sequences for entries named in this document (tags omitted). Residues count along the entry.
UniProt P08069, residues 31-932: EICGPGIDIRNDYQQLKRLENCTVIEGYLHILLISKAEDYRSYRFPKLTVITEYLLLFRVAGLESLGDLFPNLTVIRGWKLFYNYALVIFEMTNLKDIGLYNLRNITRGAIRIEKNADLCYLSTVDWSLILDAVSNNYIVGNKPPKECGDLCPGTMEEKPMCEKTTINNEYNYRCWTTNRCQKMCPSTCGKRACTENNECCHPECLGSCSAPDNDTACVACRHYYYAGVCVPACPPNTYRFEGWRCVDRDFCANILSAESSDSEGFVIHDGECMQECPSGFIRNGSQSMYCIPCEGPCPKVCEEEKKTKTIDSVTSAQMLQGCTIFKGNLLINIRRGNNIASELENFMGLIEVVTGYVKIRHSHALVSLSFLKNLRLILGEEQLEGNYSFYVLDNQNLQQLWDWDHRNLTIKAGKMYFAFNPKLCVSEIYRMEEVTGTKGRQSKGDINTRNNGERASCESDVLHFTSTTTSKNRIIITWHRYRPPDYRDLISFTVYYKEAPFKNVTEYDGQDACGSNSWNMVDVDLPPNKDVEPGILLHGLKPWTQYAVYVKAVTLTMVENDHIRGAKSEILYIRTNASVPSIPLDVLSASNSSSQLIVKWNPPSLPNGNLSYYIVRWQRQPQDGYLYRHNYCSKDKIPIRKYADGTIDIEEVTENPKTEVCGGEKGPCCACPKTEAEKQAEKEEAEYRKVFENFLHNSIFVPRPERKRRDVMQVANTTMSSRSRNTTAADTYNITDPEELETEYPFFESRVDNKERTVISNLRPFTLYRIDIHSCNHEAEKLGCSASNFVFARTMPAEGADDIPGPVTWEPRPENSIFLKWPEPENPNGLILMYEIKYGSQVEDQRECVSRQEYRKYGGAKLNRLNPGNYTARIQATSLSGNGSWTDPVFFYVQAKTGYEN
UniProt P01344, residues 25-91: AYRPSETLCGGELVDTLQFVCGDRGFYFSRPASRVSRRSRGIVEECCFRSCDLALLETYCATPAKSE

What was measured:
[1] = molecular target: insulin-like growth factor 1 receptor (soluble IGF-IR) (UniProt P08069); assay: competition ELISA: IGF-II against the binding of IGF-I to IGF-1 receptor, one concentration (not given for this figure)
[2] = molecular target: insulin-like growth factor 1 receptor (soluble IGF-IR) (UniProt P08069); assay: competition ELISA: IGF-II at 500 nM against the binding of IGF-I (50 nM) to soluble IGF-IR

**Q.** How did the binding [1] turn out when “human insulin-like growth factor II (from UniProt P01344 25-91) (ligand)” was run?
**A.** binds

**Q.** What about the binding [2] of the same substance?
**A.** binds
